## Primary screen of a compound library

The filed quantity is “Percent Effect” (%).
How 0% and 100% were set is not recorded. Most values in the screen are low, and negative values occur.
The compounds are a random part of those screened.
A dash means the value is not listed here; it may have been measured.

T. brucei: 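Whole-parasite assay of Trypanosoma brucei over 72 hours; the read-out is not stated. Concentration: 30 µM. Higher reads as stronger inhibition (inferred: compounds with an IC50 in retests scored well above the rest). Values scatter widely below zero; nearly all retest evidence comes from the higher of the two concentrations used. About 64,000 compounds were tested under these conditions; 1.5% (about 940) showed 50% or more at least once.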
Toxoplasma: 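Assay of Toxoplasma gondii numbers, read through their beta-galactosidase reporter with a colour substrate. Compounds at 10 µM. Higher reads as fewer parasites (inferred from which compounds were picked for retests). Of about 67,000 compounds tested this way, about 260 (0.38%) reached 50% or more in at least one test.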

compound | T. brucei | Toxoplasma
Cc1cncc(C2CCCN(C(=O)c3cnco3)C2)n1 (stereo not drawn) | 22.01% | 5.142%
O=C(O)C(F)(F)F.O=C(O)C(F)(F)F.[H][C@@]12CN(Cc3ccsc3)C[C@]1([H])OCCN2CC1CCCO1 (stereo partly drawn) | 6.048% | -10.76%
Fc1ccc(-c2nnc(CN3CCCC(Cn4cncn4)C3)o2)cc1 (stereo not drawn) | - | 0.3141%
Cc1nnc(CN(Cc2ccc3c(c2)OCO3)C2CCC(C)CC2)o1 (stereo not drawn) | -26.29% | -17.17%
c1ccc(CCN2CCOC(CNc3cccnn3)C2)nc1 (stereo not drawn) | - | 8.133%
[H][C@@]12CCCO[C@]1([H])[C@H](N1CCN(C)CC1)CN2C(=O)c1ccc(C)nc1 | -1.373% | -0.9954%
CN1CC2(CCN(C(=O)Cc3ccc(O)c(F)c3)CC2)CC1=O | -30.58% | -6.314%
COc1cc(N2CC[C@@H](OC)[C@@H]2Cc2ccccc2)ncn1 | -104% | 2.085%
CC(=O)N(Cc1ncc(C)o1)C1CCN(Cc2noc(C)n2)C1 (stereo not drawn) | -7.94% | -11.28%
Cc1ccc(C(=O)N(CC(=O)O)CC(C)C)cc1F | -13.98% | -
CC(C)(C)Oc1ccncc1NCc1cscn1 | -25.26% | -1.977%
O=C(Nc1cccc2c1CCCC2)c1cccc(CN2CC[C@H](O)C2)c1 | - | -26.77%
CN(C)C(=O)COCc1cncc2c1CCN(Cc1cnn(C)c1)C2.O=C(O)C(F)(F)F.O=C(O)C(F)(F)F | 2.717% | 7.208%
COCc1nc2c(o1)CN(C(=O)NCc1ccccc1)C2 | -14.05% | -0.538%
CCN(C)CC(=O)N1CCCC(c2nnc(CN3CCOCC3)n2C)C1 (stereo not drawn) | -41.26% | -5.022%
Cc1nn(C)c(C)c1CN(C(=O)c1cc(Cl)c[nH]c1=O)C(C)C | -21.27% | 2.74%
[H][C@@]12CCN(S(C)(=O)=O)C[C@@]1([H])O[C@H](C(=O)N1CCOCC1)C2 | -46.31% | -2.244%
CC(C)N1CCc2c(C#N)c(NCc3ccco3)n3cnnc3c2C1 | 17.94% | 4.575%
CCN1Cc2cc(F)ccc2N(C(=O)C2CCC2)CCC1=O | 4.168% | 7.239%
[H][C@@]12CN(C(=O)C3CC=CC3)C[C@]1([H])C(=O)N(Cc1cccc(C)n1)C2 | -13.63% | -20.08%
CC1CCN(Cc2ccccc2CNC(=O)C2CNC(=O)N2)CC1 (stereo not drawn) | -33.97% | 3.672%
CC(=O)Nc1nc(C(=O)NCc2ccc(OC(C)C)nc2)cs1 | 11.08% | -6.476%
NC(=O)C1CCN(CCCNC(=O)Nc2nccs2)CC1 | -38.07% | 0.4061%
O=C(O)C(F)(F)F.[H][C@@]12CCCO[C@]1([H])[C@H](NC(=O)c1cscn1)CN2CC1CC1 | -69.75% | -20.74%
O=C(O)C(F)(F)F.[H][C@]12CO[C@H](CN(C)C)[C@@]1([H])CCN(C(=O)NCc1cccc(F)c1)C2 | -29.31% | -3.586%
CNC(=O)c1cccc(CNC(=O)C2CC(=O)N(CCN(C)C)C2)c1 (stereo not drawn) | 40.98% | -5.837%
CS(=O)(=O)NCCN1CCCC1c1ccc(Cl)cc1 (stereo not drawn) | - | 4.582%
CC(=O)N1CCC2(CCN(CC(C)C)C2)C1 (stereo not drawn) | -12.28% | 3.988%
O=C(Cc1ccon1)N1CCN(c2ccc(F)cc2Cl)CC1 | 2.61% | 3.864%
Cc1nsc(NC(=O)NC2(CN3CCCCC3)CCCCC2)n1 | -1.262% | 7.076%
Cc1ccc(-n2c(O)cc(C)c(C#N)c2=O)c(C)c1 | -28.3% | 8.161%
COc1ccc(N2Cc3nc(N)ncc3C2=O)cc1Cl | -4.562% | -32.44%
CC(C)CCNc1nc(C(=O)NC2CC2)cs1 | -29.09% | 9.23%
CN1CCN(C2CCN(CCCOc3ccc(F)cc3)CC2)C1=O | 3.748% | 11.18%
O=C(CNC(=O)c1ccoc1)NC(c1ccc(F)cc1)C(F)(F)F (stereo not drawn) | -32.06% | 1.633%
c1cc(CN2CCC(CCn3cccn3)CC2)cc(Cn2cccn2)c1 | -4.522% | -11.03%
Cc1nc(N2CCN(C(=O)c3ccco3)CC2)c2c(n1)c(C)nn2C | 21.07% | 56.5%
Cc1cc(S(=O)(=O)Nc2onc(C)c2C)sc1C | -15.95% | -
CCNC(=O)NC(c1ccc(C)cc1)c1cccc(S(C)(=O)=O)c1 (stereo not drawn) | -13.29% | -1.765%
CC(C)Oc1cc(N2CCC3(CC2)[C@H](O)C[C@@H]3O)nc(N)n1 | -27.24% | 4.039%
COc1ccc(OCC(C)NS(C)(=O)=O)cc1 (stereo not drawn) | -30.04% | -10.42%
CC(C)(C)Cc1nnc(NCc2ccsc2)o1 | -15.62% | -4.795%
O=C(c1cscn1)N1CCC[C@]2(C[C@H](OCC3CC3)CO2)C1 | 5.52% | 8.375%
OC(CNCCn1cccn1)COc1ccc2ccccc2c1 (stereo not drawn) | -0.002741% | -7.324%
O=C(Cc1cccc(Cl)c1)Nc1cnccc1SCCCO | -42.6% | 5.959%
CC(=O)NCC(=O)N(CCN1CCOCC1)Cc1ccco1 | -24.36% | 6.002%
CNc1ncc(C(=O)N[C@H]2CN(CCCSC)C[C@@H]2C2CC2)cn1 | -42.55% | 13.69%
CCN(Cc1noc(CC(C)C)n1)Cc1ccccc1C | 13.68% | 4.813%
COc1ccc(-c2cccc(-c3ccn(CCN(C)C)n3)c2)nn1 | - | -11.97%
CN(C)CC(=O)NC1CC(=O)N(CCc2ccccc2)C1 (stereo not drawn) | -17.68% | 10.77%

The last 5 entries again:

- CC(=O)NCC(=O)N(CCN1CCOCC1)Cc1ccco1 | T. brucei: -24.36%; Toxoplasma: 6.002%
- CNc1ncc(C(=O)N[C@H]2CN(CCCSC)C[C@@H]2C2CC2)cn1 | T. brucei: -42.55%; Toxoplasma: 13.69%
- CCN(Cc1noc(CC(C)C)n1)Cc1ccccc1C | T. brucei: 13.68%; Toxoplasma: 4.813%
- COc1ccc(-c2cccc(-c3ccn(CCN(C)C)n3)c2)nn1 | Toxoplasma: -11.97%
- CN(C)CC(=O)NC1CC(=O)N(CCc2ccccc2)C1 (stereo not drawn) | T. brucei: -17.68%; Toxoplasma: 10.77%

From ChEMBL document CHEMBL3988442, “University of Dundee, Small-Polar-MMV Screening Library” (2021).